Experimental data: patent US11559517B2, “Promotion of epithelial repair” (Telethon Kids Institute, priority 2018, dated 2023)

Tested on: pAEC from asthmatic children
Assay: Scratch wound repair assay (wound closure), pAEC from asthmatic children
Format: cell-based, human
Conditions: screen at 10 μM; cohort not given
Procedure: Two in vitro scratch wound models were used. […] Wound closure was calculated through image analysis by the accompanying live-cell imaging system (Essen Bioscience, Ann Arbor, Mich., USA).
To assess in vitro wound repair kinetics, linear scratch wounds were created using a commercial monolayer wounding kit. Once confluent, cell cultures were placed in starvation media (BEGM™ without epidermal growth factor) for about 24 hours prior to wounding. At the time of wounding, cell cultures were treated with compound dilution (10 μM), DMSO vehicle (0.05% v/v) or untreated. Wound closure rates were calculated through image analysis by the accompanying live-cell imaging system (Essen Bioscience, Ann Arbor, Mich., USA).

NS(=O)(=O)c1ccc(-n2nc(C(F)(F)F)cc2-c2ccccc2)cc1 [Compound C5, Desmethyl Celecoxib]
promotion of pAEC repair relative to celecoxib: comparable efficacy
